The record followed here is PMC6166740.

By UniProt entry, the sequences of proteins in these tests, tags left out. Residues count along the entry.
UniProt P55884: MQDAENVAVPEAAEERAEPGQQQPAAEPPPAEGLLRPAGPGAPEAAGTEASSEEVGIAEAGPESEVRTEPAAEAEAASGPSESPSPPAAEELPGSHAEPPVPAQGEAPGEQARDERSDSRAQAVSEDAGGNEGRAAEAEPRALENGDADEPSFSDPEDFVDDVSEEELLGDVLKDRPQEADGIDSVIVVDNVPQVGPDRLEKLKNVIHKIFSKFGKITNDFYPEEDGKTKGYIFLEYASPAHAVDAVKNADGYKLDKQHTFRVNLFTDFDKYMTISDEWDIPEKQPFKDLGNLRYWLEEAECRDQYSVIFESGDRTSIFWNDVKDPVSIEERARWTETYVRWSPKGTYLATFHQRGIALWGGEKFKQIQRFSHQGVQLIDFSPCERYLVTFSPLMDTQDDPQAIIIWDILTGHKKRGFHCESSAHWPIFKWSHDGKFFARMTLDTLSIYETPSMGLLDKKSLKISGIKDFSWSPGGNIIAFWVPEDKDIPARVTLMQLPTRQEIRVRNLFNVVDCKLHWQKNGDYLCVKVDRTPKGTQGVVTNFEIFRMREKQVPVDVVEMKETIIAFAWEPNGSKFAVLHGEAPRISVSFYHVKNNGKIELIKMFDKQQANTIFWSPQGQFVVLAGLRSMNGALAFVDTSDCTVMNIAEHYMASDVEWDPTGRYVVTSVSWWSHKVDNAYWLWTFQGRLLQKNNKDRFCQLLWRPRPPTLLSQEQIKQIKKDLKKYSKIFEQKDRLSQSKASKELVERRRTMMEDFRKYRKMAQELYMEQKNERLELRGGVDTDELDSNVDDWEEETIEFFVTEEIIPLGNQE
UniProt Q17R60, residues 21-797: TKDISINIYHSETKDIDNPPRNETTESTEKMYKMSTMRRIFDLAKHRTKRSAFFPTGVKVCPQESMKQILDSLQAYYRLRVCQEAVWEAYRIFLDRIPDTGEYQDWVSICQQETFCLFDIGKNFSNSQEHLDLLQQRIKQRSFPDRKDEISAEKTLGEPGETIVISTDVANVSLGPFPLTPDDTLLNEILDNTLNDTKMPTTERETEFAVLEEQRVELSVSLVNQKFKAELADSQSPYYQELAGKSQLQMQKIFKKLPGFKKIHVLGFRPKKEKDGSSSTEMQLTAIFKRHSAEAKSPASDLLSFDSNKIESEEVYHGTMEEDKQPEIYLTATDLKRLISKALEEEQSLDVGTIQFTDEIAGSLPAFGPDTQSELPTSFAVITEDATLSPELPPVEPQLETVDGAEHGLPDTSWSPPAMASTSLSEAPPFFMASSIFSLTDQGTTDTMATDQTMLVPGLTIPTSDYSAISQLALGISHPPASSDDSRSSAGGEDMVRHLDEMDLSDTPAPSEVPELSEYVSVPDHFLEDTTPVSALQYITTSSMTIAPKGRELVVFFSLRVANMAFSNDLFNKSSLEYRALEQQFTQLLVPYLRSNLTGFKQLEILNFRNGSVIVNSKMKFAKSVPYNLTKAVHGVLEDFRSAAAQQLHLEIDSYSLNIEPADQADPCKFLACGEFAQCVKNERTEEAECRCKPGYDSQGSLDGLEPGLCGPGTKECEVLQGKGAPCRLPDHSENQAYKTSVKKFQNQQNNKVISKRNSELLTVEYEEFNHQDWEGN
UniProt Q9HC98: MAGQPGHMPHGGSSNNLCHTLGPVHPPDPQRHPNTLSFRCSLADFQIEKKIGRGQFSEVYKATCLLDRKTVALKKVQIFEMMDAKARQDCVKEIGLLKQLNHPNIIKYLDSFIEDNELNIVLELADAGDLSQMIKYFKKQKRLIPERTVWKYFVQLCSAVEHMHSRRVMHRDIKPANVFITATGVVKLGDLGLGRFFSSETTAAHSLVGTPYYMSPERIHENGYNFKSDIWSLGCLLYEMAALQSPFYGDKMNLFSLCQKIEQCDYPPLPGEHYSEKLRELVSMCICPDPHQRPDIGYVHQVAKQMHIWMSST

Experiment [1] concerns the target T1, FLAG-tagged NEK8 (NIMA-related kinase 8) (UniProt Q86SG6).
T1 sequence: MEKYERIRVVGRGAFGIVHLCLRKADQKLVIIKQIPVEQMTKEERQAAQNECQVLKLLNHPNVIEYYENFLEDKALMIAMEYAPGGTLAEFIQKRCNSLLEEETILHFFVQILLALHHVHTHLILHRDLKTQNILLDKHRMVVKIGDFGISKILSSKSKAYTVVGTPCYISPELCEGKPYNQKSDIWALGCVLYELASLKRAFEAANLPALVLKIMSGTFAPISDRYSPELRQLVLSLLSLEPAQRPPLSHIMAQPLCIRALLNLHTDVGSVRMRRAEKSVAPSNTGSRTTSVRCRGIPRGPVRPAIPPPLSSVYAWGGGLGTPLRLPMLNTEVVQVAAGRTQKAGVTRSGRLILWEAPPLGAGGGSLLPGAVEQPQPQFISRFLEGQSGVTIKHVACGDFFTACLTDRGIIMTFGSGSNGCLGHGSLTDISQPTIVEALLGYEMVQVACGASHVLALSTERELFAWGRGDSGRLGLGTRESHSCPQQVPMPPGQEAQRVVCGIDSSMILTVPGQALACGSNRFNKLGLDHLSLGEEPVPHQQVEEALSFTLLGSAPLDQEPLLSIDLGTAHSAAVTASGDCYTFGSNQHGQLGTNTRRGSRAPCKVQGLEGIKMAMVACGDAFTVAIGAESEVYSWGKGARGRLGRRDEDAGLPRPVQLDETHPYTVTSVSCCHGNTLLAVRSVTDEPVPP
Kind of experiment: affinity purification with mass spectrometry; NEK8 as bait in an affinity purification screen; FLAG immunoprecipitation, elution with FLAG peptide, SDS gel, in-gel trypsin digestion, LTQ Orbitrap XL.

Experiment [2] concerns the target T2, FLAG-tagged NME3 (NME/NM23 nucleoside-diphosphate kinase 3), wild type (human) (UniProt Q13232).
T2 sequence: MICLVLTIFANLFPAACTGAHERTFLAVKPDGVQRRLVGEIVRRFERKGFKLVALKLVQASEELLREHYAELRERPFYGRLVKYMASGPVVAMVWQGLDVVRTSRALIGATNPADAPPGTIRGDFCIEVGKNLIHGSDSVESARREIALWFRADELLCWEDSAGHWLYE
Description: affinity purification with mass spectrometry; FLAG-tagged NME3 as bait; FLAG immunoprecipitation, elution with FLAG peptide, SDS gel, in-gel trypsin digestion, LTQ Orbitrap XL.

No constants are given. Whether binding was seen depends on the method and setting. In cells and extracts the contact can be indirect. A yes stands for co-enrichment or nearness to the bait. Other partners may have been found. Sequences can lack the tags named with a protein.

Take “EIF3B, prey found in the NEK8 affinity purification screen (from UniProt P55884 1-814)”: the binding entry in experiment [1] is “binds”.
In the case of “IMPG1, prey found in the NEK8 affinity purification screen (from UniProt Q17R60 21-797)”, the binding entry in experiment [1] was “binds”.
Regarding “NEK6, prey found in the FLAG-NME3 interaction screen (from UniProt Q9HC98 1-313) (enzyme)”, in experiment [2], the binding entry is “binds”.

B1: DZIP1, prey found in the NEK8 affinity purification screen (protein, UniProt Q86YF9 1-867)
chain: MQAEAADWFSSMPFQKHVYYPLASGPEGPDVAVAAAAAGAASMACAPPSAASGPLPFFQFRPRLESVDWRRLSAIDVDKVAGAVDVLTLQENIMNITFCKLEDEKCPHCQSGVDPVLLKLIRLAQFTIEYLLHSQEFLTSQLHTLEERLRLSHCDGEQSKKLLTKQAGEIKTLKEECKRRKKMISTQQLMIEAKANYYQCHFCDKAFMNQAFLQSHIQRRHTEENSHFEYQKNAQIEKLRSEIVVLKEELQLTRSELEAAHHASAVRFSKEYEMQKTKEEDFLKLFDRWKEEEKEKLVDEMEKVKEMFMKEFKELTSKNSALEYQLSEIQKSNMQIKSNIGTLKDAHEFKEDRSPYPQDFHNVMQLLDSQESKWTARVQAIHQEHKKEKGRLLSHIEKLRTSMIDDLNASNVFYKKRIEELGQRLQEQNELIITQRQQIKDFTCNPLNSISEPKGNPLAWQAFESQPAAPAVPMNAPALHTLETKSSLPMVHEQAFSSHILEPIEELSEEEKGRENEQKLNNNKMHLRKALKSNSSLTKGLRTMVEQNLMEKLETLGINADIRGISSDQLHRVLKSVESERHKQEREIPNFHQIREFLEHQVSCKIEEKALLSSDQCSVSQMDTLSTGEVPKMIQLPSKNRQLIRQKAVSTDRTSVPKIKKNVMEDPFPRKSSTITTPPFSSEEEQEDDDLIRAYASPGPLPVPPPQNKGSFGKNTVKSDADGTEGSEIEDTDDSPKPAGVAVKTPTEKVEKMFPHRKNVNKPVGGTNVPEMFIKKEELQELKCADVEDEDWDISSLEEEISLGKKSGKEQKEPPPAKNEPHFAHVLNAWGAFNPKGPKGEGLQENESSTLKSSLVTVTDWSDTSDV
With B1, the binding entry in experiment [1] is on record as “binds”.

B2: NME3, prey found in the NEK8 affinity purification screen (enzyme, UniProt Q13232 1-169)
chain: T2 sequence
Consider B2, for which the binding result in experiment [1] was “binds”.
